Test results taken from paper doi:10.1101/2020.10.23.352385.
These are yes or no findings as the source states them, for the method shown. In cells and extracts the contact can be indirect. Some results given as binding are weak or reduced against the parent protein; the word gives no strength.

Chains of the proteins cited; added tags and fusions are not shown.
UniProt P33176: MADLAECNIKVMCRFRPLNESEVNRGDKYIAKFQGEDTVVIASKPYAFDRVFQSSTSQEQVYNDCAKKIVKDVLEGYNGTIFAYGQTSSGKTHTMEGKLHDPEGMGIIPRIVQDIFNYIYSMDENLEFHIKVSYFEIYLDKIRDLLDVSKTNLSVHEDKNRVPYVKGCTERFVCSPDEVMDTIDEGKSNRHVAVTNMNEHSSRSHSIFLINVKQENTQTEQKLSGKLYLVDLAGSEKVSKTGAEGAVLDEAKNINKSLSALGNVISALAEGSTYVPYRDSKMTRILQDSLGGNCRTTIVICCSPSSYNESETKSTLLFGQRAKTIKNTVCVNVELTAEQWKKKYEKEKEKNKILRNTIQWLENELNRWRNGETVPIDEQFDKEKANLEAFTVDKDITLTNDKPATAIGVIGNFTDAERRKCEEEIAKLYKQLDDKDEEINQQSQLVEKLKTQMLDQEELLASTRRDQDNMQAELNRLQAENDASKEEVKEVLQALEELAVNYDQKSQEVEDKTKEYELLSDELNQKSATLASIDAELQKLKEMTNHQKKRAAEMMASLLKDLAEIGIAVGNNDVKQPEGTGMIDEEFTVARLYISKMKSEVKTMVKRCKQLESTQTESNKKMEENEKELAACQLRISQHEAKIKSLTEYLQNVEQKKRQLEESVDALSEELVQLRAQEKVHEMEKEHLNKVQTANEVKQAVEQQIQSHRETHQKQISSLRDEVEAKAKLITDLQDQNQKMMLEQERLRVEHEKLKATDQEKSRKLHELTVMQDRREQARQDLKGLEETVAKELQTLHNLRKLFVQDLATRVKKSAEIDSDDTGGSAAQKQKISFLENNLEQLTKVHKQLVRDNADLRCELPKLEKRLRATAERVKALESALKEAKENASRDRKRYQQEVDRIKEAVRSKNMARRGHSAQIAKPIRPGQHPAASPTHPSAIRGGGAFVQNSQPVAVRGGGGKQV
UniProt O00429: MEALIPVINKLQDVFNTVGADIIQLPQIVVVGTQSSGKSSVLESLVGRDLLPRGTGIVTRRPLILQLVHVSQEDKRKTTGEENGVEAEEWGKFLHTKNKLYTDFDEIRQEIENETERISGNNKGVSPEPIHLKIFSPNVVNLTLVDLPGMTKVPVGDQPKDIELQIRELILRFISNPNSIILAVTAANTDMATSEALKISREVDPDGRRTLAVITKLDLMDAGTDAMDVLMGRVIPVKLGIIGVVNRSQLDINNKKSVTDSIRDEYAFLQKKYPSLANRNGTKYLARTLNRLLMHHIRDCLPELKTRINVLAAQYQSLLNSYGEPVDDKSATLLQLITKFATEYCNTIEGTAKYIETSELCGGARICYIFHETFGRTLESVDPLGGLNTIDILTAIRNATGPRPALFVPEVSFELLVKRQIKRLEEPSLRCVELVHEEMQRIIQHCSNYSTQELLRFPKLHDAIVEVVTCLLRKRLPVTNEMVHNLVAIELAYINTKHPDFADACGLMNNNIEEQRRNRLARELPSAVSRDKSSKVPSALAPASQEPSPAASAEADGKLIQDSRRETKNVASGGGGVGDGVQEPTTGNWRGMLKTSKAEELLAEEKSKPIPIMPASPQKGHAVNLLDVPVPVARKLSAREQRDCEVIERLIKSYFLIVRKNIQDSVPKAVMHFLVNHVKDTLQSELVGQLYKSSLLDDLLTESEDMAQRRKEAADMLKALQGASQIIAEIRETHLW

Target: Kinesin family member 5B (human (endogenous in A549 and SK-N-BE(2)C)) (UniProt P33176)
Experiment: co-IP

## Dynamin-related protein 1 (from UniProt O00429 1-736)
  binding: binds
